Experimental data taken from patent US5192676.
Construct, isoform or probe ends are uncertain for at least one entry.

Tested on: AscI restriction endonuclease (Arthrobacter sp. NEB 688 (ATCC 55134))
Experiment: enzyme reaction in vitro
Conditions: 37 C, purified native protein

Sequence | activity on this sequence (cleaves GG/CGCGCC giving labeled d(AGG), 70 mM Tris-HCl pH 7.6, 10 mM MgCl2, 5 mM DTT, 2 h, label: 5'-32P) | activity on this sequence (cleavage between second and third bases, four-base 5' extension, 30 min, label: 35S dATP)
AGGCGCGCCT (double strand) [AscI 10-mer self-complementary oligonucleotide] | active | 
AGGCGCGCCT (double strand) |  | active
